Measurements from PubChem BioAssay (EPA / NIEHS).
Inconclusive means that the source gave no clear call. Such entries were picked first, then a sample of the others. For some of these results: Potencies of inconclusive entries are doubtful fits and often do not repeat. The source made the active and inactive calls. How the source made its calls: active means hit-call score of the fitted dose curve at least 0.9, where 1 is the maximum; inconclusive means response in the unintended direction; inactive means score below 0.9.

Protein sequences, listed by entry. Tags and fused reporters are not part of them. Lines headed by an entry give the natural chain unless they say otherwise; changes in a name come on top.
UniProt P10275: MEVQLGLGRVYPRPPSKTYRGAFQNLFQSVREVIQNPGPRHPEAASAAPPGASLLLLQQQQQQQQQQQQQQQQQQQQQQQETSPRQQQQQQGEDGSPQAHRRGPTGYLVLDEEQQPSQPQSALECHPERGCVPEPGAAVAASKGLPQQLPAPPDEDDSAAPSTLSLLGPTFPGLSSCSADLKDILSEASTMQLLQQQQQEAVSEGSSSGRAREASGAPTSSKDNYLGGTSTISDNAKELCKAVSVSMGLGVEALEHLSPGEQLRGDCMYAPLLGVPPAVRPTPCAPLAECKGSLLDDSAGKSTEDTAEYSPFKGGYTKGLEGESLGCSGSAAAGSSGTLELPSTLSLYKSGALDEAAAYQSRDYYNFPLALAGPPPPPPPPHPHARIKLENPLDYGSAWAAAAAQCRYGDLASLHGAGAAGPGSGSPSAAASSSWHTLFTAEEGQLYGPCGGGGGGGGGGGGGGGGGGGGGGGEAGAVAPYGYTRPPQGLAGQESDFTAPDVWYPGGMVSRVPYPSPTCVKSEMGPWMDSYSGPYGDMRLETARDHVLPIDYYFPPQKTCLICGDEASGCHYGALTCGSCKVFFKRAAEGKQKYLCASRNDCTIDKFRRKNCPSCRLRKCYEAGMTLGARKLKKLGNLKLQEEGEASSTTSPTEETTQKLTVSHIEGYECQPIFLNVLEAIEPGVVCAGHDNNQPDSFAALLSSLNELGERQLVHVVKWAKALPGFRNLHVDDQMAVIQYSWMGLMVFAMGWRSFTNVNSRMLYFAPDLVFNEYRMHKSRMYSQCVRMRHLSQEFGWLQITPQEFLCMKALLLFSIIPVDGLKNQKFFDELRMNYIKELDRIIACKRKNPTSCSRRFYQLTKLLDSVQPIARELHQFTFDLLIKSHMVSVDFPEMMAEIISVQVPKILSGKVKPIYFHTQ

Key:
[1] = ACEA_ER_AUC_viability: ACEA Biosciences xCELLigence Real-Time Cell Analysis on Estrogen Receptor Agonism for Viability (AID 2283782);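 further: continuous compound exposure with impedance area under curve over 80 h; hit means loss of impedance signal meaning reduced cell growth or viability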
Summary of the method: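 T-47D human breast cells in phenol red-free RPMI1640 with 10% charcoal-stripped FBS were dosed with an 8-point 1:4 dilution series from 100 uM top final concentration, in duplicate. Impedance-based growth was followed for 80 h; AUC analysed versus DMSO.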

AR (gene 367) = AR (gene 367) (UniProt P10275); experiment: ACEA_AR_agonist_80hr: ACEA Biosciences xCELLigence Real-Time Cell Analysis on Androgen Receptor Agonism for Proliferation (AID 2283783);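 further: hits increase impedance growth signal above DMSO baseline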
Summary of the method: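 22Rv1 human prostate cancer cells were seeded after preconditioning in assay medium and monitored overnight, then dosed in an eight-point 1:4 dilution series from 100 uM (≤0.5% DMSO). Impedance-based growth was read at 80 h, gain-of-signal versus DMSO.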

[2] = STM_H9_NormalizedViability: Cytotoxicity Assessment at 120 hours in the Stemina devTOX quickPredict H9 human embryonic stem cell (hESC)-based Assay (AID 2283784)
Summary of the method: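 Chemicals are tested blinded on H9 human embryonic stem cells in the pluripotent state, with medium exchanged daily. After background correction, fluorescence from CellTiter-Fluor is scaled against 0.1% DMSO wells, and decreases are scored.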

## OCc1ccccc1
[1]
  AC50: inconclusive: 0.389 µM
AR (gene 367)
  AC50: inconclusive: 50 µM

## CN[C@H]1CC[C@@H](c2ccc(Cl)c(Cl)c2)c2ccc(S(N)(=O)=O)cc21
[1]
  AC50: active: 10.9 µM
AR (gene 367)
  AC50: inconclusive: 0.0876 µM

## CNCc1ccc(NC(=O)c2c[nH]c3c2C(=O)CCC3)cc1
[1]
  AC50: inconclusive: 10.6 µM
[2]
  outcome: inactive

## O=c1[nH]cccc1O
[1]
  AC50: active: 25.7 µM

## O=c1oc(=O)c2cc3c(=O)oc(=O)c3cc12
[1]
  outcome: inactive

## OCc1cccc(Oc2ccccc2)c1
[1]
  AC50: inconclusive: 18 µM
AR (gene 367)
  outcome: inactive

## Fc1ccccc1[C@@H](F)COC1CCC(Nc2ncnc3[nH]ncc23)CC1 (stereo not given in full)
[1]
  AC50: inconclusive: 50 µM
AR (gene 367)
  AC50: inconclusive: 50 µM

## O=C(C=Cc1ccccc1)OCCc1ccccc1
[1]
  AC50: active: 58 µM

## Cc1nc(-c2ccc3c(c2)CCN(CCC2CCC(NC(=O)/C=C/c4ccc(F)cc4)CC2)CC3)no1 (stereo not given)
[1]
  outcome: inactive
AR (gene 367)
  AC50: inconclusive: 23.2 µM

## FC(F)(F)C(F)(F)C(F)(F)C(F)(F)C(F)(F)C(F)(F)CCI
[1]
  outcome: inactive

## CCCCCCc1ccc(O)cc1O
[1]
  AC50: active: 80.1 µM
AR (gene 367)
  AC50: inconclusive: 0.53 µM

## CCN=C1C=CC(=C(c2ccc(N(CC)CC)cc2)c2ccc(N(CC)CC)cc2)c2ccccc21
[1]
  AC50: active: 5.37 µM
AR (gene 367)
  AC50: inconclusive: 16.6 µM

## Cc1ccc2ccccc2n1
[1]
  outcome: inactive

## O=C(O)CCC(F)(F)C(F)(F)C(F)(F)F
[1]
  outcome: inactive

## CC(C=O)Cc1ccc(C(C)(C)C)cc1 (stereo not given)
[1]
  AC50: inconclusive: 0.0159 µM
AR (gene 367)
  AC50: inconclusive: 0.747 µM

## CNC(=S)NC
[1]
  AC50: inconclusive: 10.4 µM
AR (gene 367)
  outcome: inactive

## NNC(=O)OCc1ccccc1
[1]
  outcome: inactive

## CCc1cccc(CC)c1N
[1]
  AC50: inconclusive: 50 µM
AR (gene 367)
  outcome: inactive

## CCC(=O)OCCc1ccccc1
[1]
  AC50: inconclusive: 5.21 µM

## CCCCC1CCC(O)CC1 (stereo not given)
[1]
  outcome: inactive
AR (gene 367)
  AC50: inconclusive: 8.36 µM

## Nc1nc2ncc(CNc3ccc(C(=O)N[C@@H](CCC(=O)O)C(=O)O)cc3)nc2c(=O)[nH]1
[1]
  AC50: inconclusive: 50 µM
AR (gene 367)
  AC50: inconclusive: 14.1 µM

## COc1cc(C(C)C)c2c(c1)S(=O)(=O)N(COc1cc(=O)n3cccc(OCCN4CCCCC4)c3n1)C2=O
[1]
  AC50: active: 17.4 µM
AR (gene 367)
  outcome: inactive

## Cc1ccc(N(C)C)cc1
[1]
  AC50: inconclusive: 0.0206 µM
AR (gene 367)
  AC50: inconclusive: 11.3 µM

## Oc1ccc2c(c1)-c1ccccc1C2
[1]
  AC50: active: 79.2 µM
AR (gene 367)
  outcome: inactive
